Measurements taken from the supplement of paper PMC10849652.
The other results are listed elsewhere or left out. Residues, ends and D or L forms follow the SMILES beside them. *: point of attachment. Cbz = O=C(OCc1ccccc1)*

The chains behind the UniProt entries cited, without tags or fusion partners. Where a name states a change or a piece, a line headed by the entry shows the natural chain unless it says otherwise.
UniProt Q9Y4L5, whole entry, looked up: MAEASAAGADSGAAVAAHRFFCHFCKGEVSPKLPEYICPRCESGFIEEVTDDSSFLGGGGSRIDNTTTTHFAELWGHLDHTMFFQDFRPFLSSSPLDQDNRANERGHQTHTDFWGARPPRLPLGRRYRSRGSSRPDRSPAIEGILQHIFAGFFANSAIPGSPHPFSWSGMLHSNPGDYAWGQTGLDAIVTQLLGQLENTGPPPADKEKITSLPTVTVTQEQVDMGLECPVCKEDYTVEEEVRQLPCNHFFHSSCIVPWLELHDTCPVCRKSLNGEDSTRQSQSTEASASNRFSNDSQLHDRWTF
UniProt P0C7M4: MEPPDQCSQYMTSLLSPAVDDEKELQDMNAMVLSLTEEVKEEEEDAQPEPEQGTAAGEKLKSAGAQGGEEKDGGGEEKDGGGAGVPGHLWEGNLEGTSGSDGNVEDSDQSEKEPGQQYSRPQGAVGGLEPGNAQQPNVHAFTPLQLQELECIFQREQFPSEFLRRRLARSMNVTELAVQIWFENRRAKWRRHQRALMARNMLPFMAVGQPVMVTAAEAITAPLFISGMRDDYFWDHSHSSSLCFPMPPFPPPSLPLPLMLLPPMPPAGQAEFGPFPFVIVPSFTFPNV
UniProt Q8NDN9: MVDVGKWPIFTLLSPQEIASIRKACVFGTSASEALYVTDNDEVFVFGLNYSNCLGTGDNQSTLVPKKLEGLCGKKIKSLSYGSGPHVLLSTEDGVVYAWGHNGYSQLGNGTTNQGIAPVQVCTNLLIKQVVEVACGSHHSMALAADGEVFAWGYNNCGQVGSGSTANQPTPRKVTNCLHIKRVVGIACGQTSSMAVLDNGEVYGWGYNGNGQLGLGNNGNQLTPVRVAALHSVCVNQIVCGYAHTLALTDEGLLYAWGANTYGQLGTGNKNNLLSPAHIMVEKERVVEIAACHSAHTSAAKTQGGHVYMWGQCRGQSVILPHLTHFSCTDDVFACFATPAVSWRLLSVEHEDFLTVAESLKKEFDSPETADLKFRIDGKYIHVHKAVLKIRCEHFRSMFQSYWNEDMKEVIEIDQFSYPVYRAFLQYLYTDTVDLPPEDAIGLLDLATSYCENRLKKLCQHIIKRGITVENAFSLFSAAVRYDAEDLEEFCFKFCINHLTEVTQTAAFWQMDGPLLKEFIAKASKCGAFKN
UniProt Q05823: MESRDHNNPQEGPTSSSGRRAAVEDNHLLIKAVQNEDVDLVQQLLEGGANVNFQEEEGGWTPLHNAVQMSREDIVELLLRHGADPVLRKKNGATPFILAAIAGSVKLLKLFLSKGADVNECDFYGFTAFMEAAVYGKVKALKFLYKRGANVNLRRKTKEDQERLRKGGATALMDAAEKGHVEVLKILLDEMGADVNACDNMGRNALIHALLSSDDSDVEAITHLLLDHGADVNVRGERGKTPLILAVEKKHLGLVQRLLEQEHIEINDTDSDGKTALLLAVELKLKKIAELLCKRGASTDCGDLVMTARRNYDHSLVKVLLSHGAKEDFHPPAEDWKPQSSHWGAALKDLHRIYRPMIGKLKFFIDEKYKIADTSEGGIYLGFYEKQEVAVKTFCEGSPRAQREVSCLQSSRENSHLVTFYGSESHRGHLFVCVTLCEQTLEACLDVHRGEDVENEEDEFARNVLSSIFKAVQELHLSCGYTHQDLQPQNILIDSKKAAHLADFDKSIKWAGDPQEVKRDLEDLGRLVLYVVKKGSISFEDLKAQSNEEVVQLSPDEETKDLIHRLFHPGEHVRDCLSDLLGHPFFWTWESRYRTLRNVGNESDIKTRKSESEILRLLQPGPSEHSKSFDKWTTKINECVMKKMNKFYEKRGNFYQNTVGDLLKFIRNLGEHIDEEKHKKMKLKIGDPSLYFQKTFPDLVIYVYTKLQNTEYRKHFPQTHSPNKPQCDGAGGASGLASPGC
UniProt O43566: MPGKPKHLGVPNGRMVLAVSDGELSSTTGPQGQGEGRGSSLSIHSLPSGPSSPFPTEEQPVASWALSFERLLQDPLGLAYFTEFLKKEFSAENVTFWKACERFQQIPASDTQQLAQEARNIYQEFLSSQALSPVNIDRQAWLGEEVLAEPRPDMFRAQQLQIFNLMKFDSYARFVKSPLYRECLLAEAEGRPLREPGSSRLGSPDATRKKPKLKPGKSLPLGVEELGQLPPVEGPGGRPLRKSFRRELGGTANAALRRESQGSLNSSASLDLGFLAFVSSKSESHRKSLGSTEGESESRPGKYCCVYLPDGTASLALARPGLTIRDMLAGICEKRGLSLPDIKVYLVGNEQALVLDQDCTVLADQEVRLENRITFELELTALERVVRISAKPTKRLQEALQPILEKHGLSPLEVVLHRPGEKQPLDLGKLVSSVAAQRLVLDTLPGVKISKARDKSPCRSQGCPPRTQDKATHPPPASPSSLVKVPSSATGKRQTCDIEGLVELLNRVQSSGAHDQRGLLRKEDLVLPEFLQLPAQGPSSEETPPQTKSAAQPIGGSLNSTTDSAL
UniProt Q9Y3C5: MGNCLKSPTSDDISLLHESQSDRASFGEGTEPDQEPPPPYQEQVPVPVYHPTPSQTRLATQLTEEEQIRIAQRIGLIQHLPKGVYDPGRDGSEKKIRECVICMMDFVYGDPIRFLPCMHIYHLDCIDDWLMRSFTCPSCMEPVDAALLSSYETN
UniProt Q9HBD1: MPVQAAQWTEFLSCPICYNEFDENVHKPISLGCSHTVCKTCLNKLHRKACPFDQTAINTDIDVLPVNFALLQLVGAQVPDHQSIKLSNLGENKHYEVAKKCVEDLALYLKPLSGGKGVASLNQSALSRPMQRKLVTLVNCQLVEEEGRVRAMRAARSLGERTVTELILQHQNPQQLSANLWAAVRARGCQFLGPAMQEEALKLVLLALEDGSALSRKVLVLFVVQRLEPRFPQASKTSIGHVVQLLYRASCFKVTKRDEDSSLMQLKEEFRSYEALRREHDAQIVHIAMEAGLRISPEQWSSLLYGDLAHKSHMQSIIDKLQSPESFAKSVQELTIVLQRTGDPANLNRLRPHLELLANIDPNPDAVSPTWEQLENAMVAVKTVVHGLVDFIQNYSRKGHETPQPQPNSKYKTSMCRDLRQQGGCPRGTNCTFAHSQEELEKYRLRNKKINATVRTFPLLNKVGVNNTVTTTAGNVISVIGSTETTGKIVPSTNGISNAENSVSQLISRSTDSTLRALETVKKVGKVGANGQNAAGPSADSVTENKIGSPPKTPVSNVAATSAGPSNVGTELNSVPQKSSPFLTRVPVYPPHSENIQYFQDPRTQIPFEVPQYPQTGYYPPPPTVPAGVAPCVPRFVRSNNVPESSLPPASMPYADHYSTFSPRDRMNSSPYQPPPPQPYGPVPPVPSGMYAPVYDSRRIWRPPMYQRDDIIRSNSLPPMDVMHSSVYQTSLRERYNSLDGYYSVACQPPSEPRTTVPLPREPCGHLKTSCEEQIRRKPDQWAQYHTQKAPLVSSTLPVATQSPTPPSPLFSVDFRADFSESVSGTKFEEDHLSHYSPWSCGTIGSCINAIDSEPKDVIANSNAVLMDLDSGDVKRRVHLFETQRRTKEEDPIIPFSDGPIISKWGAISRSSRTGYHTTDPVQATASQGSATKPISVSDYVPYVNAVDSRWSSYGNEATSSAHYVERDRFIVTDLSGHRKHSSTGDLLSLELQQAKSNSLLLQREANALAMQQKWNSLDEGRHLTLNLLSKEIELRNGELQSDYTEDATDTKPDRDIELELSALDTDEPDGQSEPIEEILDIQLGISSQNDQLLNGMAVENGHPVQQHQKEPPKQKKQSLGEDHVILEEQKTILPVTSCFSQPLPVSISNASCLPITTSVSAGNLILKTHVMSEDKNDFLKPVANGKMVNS
UniProt Q2KHR2: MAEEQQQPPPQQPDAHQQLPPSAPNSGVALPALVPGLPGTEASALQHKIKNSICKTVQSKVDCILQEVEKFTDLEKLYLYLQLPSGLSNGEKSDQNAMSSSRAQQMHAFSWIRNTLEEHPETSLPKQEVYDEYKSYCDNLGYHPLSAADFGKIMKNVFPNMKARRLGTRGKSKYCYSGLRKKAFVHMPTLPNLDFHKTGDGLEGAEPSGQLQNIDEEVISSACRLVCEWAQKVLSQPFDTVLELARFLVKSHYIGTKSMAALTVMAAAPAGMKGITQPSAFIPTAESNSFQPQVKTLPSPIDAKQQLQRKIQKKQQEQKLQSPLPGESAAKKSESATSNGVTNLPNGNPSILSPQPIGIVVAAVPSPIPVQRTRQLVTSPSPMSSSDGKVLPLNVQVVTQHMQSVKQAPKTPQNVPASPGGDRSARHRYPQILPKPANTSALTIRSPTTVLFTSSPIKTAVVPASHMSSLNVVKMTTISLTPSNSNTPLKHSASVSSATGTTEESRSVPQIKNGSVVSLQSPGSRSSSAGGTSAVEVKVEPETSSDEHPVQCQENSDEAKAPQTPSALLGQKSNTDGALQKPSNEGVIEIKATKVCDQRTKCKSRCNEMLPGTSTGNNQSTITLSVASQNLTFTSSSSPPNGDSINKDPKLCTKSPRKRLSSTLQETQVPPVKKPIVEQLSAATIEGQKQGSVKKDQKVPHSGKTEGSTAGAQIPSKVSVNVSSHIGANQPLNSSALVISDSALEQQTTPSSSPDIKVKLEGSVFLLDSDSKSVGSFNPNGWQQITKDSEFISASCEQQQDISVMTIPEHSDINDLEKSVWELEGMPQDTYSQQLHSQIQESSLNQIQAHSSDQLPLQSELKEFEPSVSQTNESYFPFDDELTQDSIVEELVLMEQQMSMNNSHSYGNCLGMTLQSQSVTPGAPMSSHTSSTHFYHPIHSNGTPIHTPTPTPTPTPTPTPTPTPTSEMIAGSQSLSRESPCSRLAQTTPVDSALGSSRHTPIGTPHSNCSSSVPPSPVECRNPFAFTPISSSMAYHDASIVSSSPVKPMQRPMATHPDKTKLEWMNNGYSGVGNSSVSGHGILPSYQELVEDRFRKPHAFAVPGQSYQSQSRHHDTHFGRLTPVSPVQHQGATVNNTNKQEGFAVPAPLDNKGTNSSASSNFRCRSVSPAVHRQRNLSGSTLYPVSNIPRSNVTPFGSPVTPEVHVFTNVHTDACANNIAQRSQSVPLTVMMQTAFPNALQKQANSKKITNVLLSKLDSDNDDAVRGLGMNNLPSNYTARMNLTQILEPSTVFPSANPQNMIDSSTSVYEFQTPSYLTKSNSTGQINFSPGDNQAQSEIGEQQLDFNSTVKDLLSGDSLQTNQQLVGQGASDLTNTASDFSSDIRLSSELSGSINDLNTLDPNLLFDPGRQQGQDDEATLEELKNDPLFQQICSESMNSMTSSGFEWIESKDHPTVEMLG
UniProt Q9H1E1: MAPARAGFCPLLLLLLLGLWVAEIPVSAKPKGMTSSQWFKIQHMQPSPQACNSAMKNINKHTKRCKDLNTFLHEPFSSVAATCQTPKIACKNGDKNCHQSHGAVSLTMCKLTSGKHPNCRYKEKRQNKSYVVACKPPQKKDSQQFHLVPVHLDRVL
UniProt P78332: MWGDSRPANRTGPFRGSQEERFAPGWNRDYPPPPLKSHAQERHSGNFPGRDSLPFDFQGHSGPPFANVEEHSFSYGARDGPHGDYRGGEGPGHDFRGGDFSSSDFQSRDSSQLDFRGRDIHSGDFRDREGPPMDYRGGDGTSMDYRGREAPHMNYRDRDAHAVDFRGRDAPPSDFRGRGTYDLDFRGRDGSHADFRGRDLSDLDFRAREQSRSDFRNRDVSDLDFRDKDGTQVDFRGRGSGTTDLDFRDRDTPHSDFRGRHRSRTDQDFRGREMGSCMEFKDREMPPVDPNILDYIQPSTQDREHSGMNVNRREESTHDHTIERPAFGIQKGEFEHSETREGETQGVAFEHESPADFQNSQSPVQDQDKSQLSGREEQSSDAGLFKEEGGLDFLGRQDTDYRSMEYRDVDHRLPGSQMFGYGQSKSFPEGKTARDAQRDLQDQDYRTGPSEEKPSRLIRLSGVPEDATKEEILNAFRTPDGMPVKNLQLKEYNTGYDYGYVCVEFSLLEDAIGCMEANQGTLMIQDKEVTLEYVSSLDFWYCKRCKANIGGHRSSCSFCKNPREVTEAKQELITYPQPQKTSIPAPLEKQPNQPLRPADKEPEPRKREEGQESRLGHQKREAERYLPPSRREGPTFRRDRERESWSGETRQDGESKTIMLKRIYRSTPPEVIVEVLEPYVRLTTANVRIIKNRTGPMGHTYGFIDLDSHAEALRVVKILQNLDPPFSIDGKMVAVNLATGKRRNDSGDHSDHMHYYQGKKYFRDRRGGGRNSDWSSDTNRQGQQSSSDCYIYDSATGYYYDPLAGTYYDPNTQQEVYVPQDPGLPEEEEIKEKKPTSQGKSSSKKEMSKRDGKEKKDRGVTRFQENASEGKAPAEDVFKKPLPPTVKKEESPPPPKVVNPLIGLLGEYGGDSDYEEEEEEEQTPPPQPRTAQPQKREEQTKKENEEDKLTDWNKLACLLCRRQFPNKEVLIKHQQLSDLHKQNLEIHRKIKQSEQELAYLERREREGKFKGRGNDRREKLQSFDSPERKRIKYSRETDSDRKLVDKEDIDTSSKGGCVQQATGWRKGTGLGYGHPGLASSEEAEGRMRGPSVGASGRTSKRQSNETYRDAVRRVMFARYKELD

Columns and labels:
Test in all cases: log2 fold change, soluble protein after heating vs DMSO (PISA); higher = thermal stabilisation; K562 cells, 10 uM, 30 min; active = over 0.2 and 3.5 SD of the protein, either way, in both replicates (recomputed)
[1] = compound: CC(=O)c1cnc2ccc(-c3cc(Cl)c(O)c(Cl)c3)nc2c1N[C@H]1CC[C@H](CN(C)C)CC1
Procedure, shortened: (§1)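 K562 cells at 2×10^6 cells/mL were exposed to 10 μM compound for 30 min, then aliquots were heated for 3 min across 48°C-58°C, pooled, and extracted in PBS containing 0.5% NP-40 at 4°C. The supernatant after 21,000xg for 90 min was taken as soluble protein and measured by TMTpro 16plex LC-MS/MS with channel sums equalised. Thermal stability is reported relative to control samples, with values from duplicates. Fold changes are given on a log2 scale.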

[2] = compound: CC(C)(C)Cn1c(N)nc2ccc(-c3[nH]c(C(C)(C)C)nc3-c3ccc(F)cc3)nc21 [ralimetinib]
Procedure, shortened: as §1

[3] = compound: CC(C)C1=C2N=C(C=C(N2N=C1)NCC3=CC=CC=C3)NCCCCCCN
Procedure, shortened: as §1

[4] = compound: CC(C)C[C@@H](C=O)NC(=O)[C@H](CC(C)C)NC(=O)[C@H](CC(C)C)NC(=O)OCc1ccccc1
Procedure, shortened: as §1

[5] = compound: CC1=C(C2=C(C=C1)C(=O)C3=CC=CC=C3N2CCCN)C
Procedure, shortened: as §1

[6] = compound: CC1=C(C=C(C=C1)NC(=O)C2=CC(=CC=C2)C(C)(C)C#N)NC3=CC4=C(C=C3)N=CN(C4=O)C
Procedure, shortened: as §1

[7] = compound: CC1=C(C=C(C=C1)NC(=O)C2=CC(=CC=C2)N(C)C)NC(=O)C3=CC=C(C=C3)O
Procedure, shortened: as §1

[8] = compound: CC1=CC=C(C=C1)SC2=C3C=C(SC3=CN=C2)C(=O)N
Procedure, shortened: as §1

[9] = compound: CCCS(=O)(=O)Nc1ccc(F)c(C(=O)c2c[nH]c3ncc(-c4ccc(Cl)cc4)cc23)c1F [vemurafenib]
Procedure, shortened: as §1

[10] = compound: CCCS(=O)(=O)Nc1ccc(F)c(C(=O)c2c[nH]c3ncc(Cl)cc23)c1F
Procedure, shortened: as §1

[11] = compound: CCCc1cc(C)[nH]c(=O)c1CNC(=O)c1cc(-c2ccnc(N3CCN(C)CC3)c2)cc2c1cnn2C(C)C
Procedure, shortened: as §1

[12] = compound: CCN(CC)Cc1ccc2cc(COC(=O)Nc3ccc(C(=O)NO)cc3)ccc2c1 [givinostat]
Procedure, shortened: as §1

[13] = compound: C1COCCN1CCN2C3=CC=CC=C3N=C2NC(=O)C4=CC(=CC=C4)[N+](=O)[O-] [IRAK-1-4 Inhibitor I]
Procedure, shortened: as §1

[14] = compound: CC(C)(O)CC(=O)NCCn1ccc2ncnc(Nc3ccc(Oc4cccc(C(F)(F)F)c4)c(Cl)c3)c21
Procedure, shortened: as §1

[15] = compound: CC(C)N(C[C@H]1O[C@@H](n2cnc3c(N)ncnc32)[C@H](O)[C@@H]1O)[C@H]1C[C@@H](CCc2nc3cc(C(C)(C)C)ccc3[nH]2)C1 [pinometostat]
Procedure, shortened: as §1

[16] = compound: CC1=NC(=CC=C1)C2=C(N=C(N2)C(C)(C)C)C3=CC4=NC=CN=C4C=C3
Procedure, shortened: as §1

[17] = compound: CCCCN(Cc1ccc(C(=O)NO)cc1)C(=O)Nc1ccccc1 [Nexturastat A]
Procedure, shortened: as §1

[18] = compound: CC1=C(C(CC(=O)N1)C2=CC=C(C=C2)C(F)(F)F)C(=O)NC3=C(C=C4C(=C3)C=NN4)F
Procedure, shortened: as §1

[19] = compound: C=CC(=O)N1CCC[C@@H](n2nc(-c3ccc(Oc4ccccc4)cc3)c3c(N)ncnc32)C1 [ibrutinib]
Procedure, shortened: as §1

[20] = compound: CCN(CCCOc1ccc2c(Nc3cc(CC(=O)Nc4cccc(F)c4)[nH]n3)ncnc2c1)CCOP(=O)(O)O [barasertib]
Procedure, shortened: as §1

Measured: log2 fold change

RNF166 (UniProt Q96A37)
inactive: [1] 0.107 | [2] 0.027 | [3] 0.092 | [4] 0.039 | [5] -0.05 | [6] -0.037 | [7] 0.006 | [8] 0.071 | [9] -0.065 | [10] 0.045 | [11] 0.005 | [12] 0.038

RIPOR1 isoform 4 (UniProt Q6ZS17)
inactive: [13] 0.028 | [2] 0.057 | [14] -0.122 | [4] 0.228 | [15] -0.054 | [5] 0 | [7] -0.213 | [16] -0.024 | [17] 0.066

RNF115 (UniProt Q9Y4L5)
inactive: [18] 0.115

RHOXF2B (UniProt P0C7M4)
inactive: [1] -0.052 | [6] -0.17 | [8] -0.153 | [10] 0.084

RCBTB1 (UniProt Q8NDN9)
inactive: [19] 0.022 | [14] -0.184 | [3] 0.075 | [6] 0.168 | [17] 0.023 | [12] -0.197 | [20] 0.049

RNASEL (UniProt Q05823)
inactive: [2] 0.183 | [4] 0.372 | [7] 0.052 | [11] 0.164

RGS14 (UniProt O43566)
inactive: [19] 0 | [1] -0.23 | [2] 0.056 | [14] 0.033 | [3] -0.047 | [4] 0.047 | [18] 0.349 | [5] 0.032 | [7] 0.152 | [17] 0.1 | [9] -0.268 | [11] -0.153 | [12] 0.173 | [20] 0.054

RILPL1 (UniProt Q5EBL4)
inactive: [13] 0.036 | [2] -0.111 | [14] -0.075 | [3] -0.211 | [4] 0.144 | [15] 0.03 | [5] -0.047 | [6] 0.014 | [7] 0.109 | [16] -0.073 | [17] 0.134 | [9] 0.071 | [11] -0.076 | [12] 0.167

RNF11 (UniProt Q9Y3C5)
inactive: [13] 0.047 | [2] -0.065 | [4] 0.149 | [15] -0.014 | [7] -0.016 | [16] 0.209

RFWD3 (UniProt Q6PCD5)
inactive: [1] 0.084 | [14] 0.097 | [3] -0.054 | [6] -0.08 | [8] -0.084 | [17] 0.044 | [9] 0.025 | [10] -0.217 | [12] -0.056

RC3H2 (UniProt Q9HBD1)
inactive: [14] 0.125 | [5] -0.081 | [8] -0.052 | [17] 0.053 | [10] 0.022

RECQL5 (UniProt O94762)
inactive: [9] 0.005

RFX3 (UniProt P48380)
inactive: [19] -0.174 | [3] -0.035 | [6] -0.323 | [8] -0.144 | [10] 0.169 | [12] 0.062 | [20] 0.239

RFX7 (UniProt Q2KHR2)
inactive: [6] 0.177

RNASE7 (UniProt Q9H1E1)
inactive: [1] -0.272

RCL1 (UniProt Q5VZU2)
inactive: [1] -0.05 | [2] -0.127 | [14] -0.082 | [4] 0.047 | [5] -0.089 | [7] 0.004 | [17] 0.314

RBM6 (UniProt P78332)
inactive: [13] 0.146 | [1] -0.208 | [15] -0.09 | [5] -0.16 | [6] -0.009 | [8] -0.056 | [16] 0.092 | [10] 0.031 | [11] -0.079

RELCH isoform 2 (UniProt Q9P260)
inactive: [19] 0.002 | [1] -0.036 | [2] -0.347 | [14] -0.122 | [3] -0.099 | [4] 0.065 | [18] 0.001 | [5] 0.101 | [6] 0.006 | [7] -0.089 | [17] -0.042 | [9] -0.026 | [11] -0.114 | [12] 0.105 | [20] 0.225

RMI2 (UniProt Q96E14)
inactive: [1] 0.062 | [2] -0.094 | [4] 0.114 | [5] 0.099 | [7] -0.017 | [8] -0.113 | [9] 0.164 | [10] 0.044 | [11] 0.083

Two records drawn at random from those above, as already listed:
RNASE7 (UniProt Q9H1E1)
inactive: [1] -0.272

RBM6 (UniProt P78332)
inactive: [13] 0.146 | [1] -0.208 | [15] -0.09 | [5] -0.16 | [6] -0.009 | [8] -0.056 | [16] 0.092 | [10] 0.031 | [11] -0.079
